The list shows a part of the results. These are further read-outs of the screen, such as a control signal, another cell line or another target. No call is given for them. Most of these compounds were active or inconclusive in the main read-out, so they are no random draw. The note in brackets gives the kind of curve behind each potency; many fits are weak.
Test: qHTS Assay for Lipid Storage Modulators in Drosophila S3 Cells;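 on cell number change: cells counted by Cell Tracker Red CMTPX staining in the red channel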
Details: BODIPY lipid droplet fluorescence, 18-24 h; for cell number change: measured here: cell count max response, cells fed with added oleic acid
Method in brief: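 Drosophila S3 cells got compounds at several concentrations plus oleic acid (400 uM solution). Laser-scanning cytometry with 488 nm excitation read lipid droplets at 500-530 nm and cells at 575-640 nm. Percent activity was relative to 20 uM Triacsin C.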

[1] = measured here: cell number channel AC50, cells fed with added oleic acid
[2] = measured here: lipid fluorescence (Fed channel) AC50, cells fed with added oleic acid

## Cc1ccc(S(=O)(=O)Nc2ccc3c(c2)nc2n3CCN(Cc3ccccc3)C2)cc1
  cell number change: 17.6%
[1]
  AC50: 1160 nM [rising, partial curve, poor fit]
[2]
  AC50: 1030 nM [rising, single point]

## COc1ccc(C2C(C#N)=C(N)N(c3sc4c(c3C#N)CCCC4)C3=C2C(=O)CC(C)(C)C3)cc1OC (stereo not given)
  cell number change: 8.59%
[2]
  AC50: 1840 nM [rising, partial curve]

## C=CCSc1nnc2n(CCc3ccccc3)c(=O)c3c4c(sc3n12)COC(C)(C)C4
[1]
  AC50: 517 nM [rising, full curve]

## COc1cc(C(=O)O/N=C2/C=CC(=O)C(C)=C2C)cc(OC)c1OC
  cell number change: -30%
[1]
  AC50: 1.84 nM [falling, full curve, poor fit]

## CC(=O)N1c2ccc(S(=O)(=O)N(C)Cc3ccco3)cc2CC1C (stereo not given)
  cell number change: 16.4%
[2]
  AC50: 29100 nM [rising, single point]

## COc1ccc2c(C)cc(SC3CCOC3=O)nc2c1 (stereo not given)
  cell number change: 55.7%
[1]
  AC50: 25900 nM [rising, single point]

## CCN(CC)c1ccc(C(=O)N/N=C(\C)c2cccc(OC)c2)cc1
  cell number change: 12.6%
[2]
  AC50: 2310 nM [rising, partial curve, poor fit]

## COc1cc(C(=O)O)ccc1O
  cell number change: -30.2%
[1]
  AC50: 116 nM [falling, full curve, poor fit]

## FC(F)(F)c1cccc(N2CCN(Cc3cccnc3)CC2)c1
[2]
  AC50: 731 nM [rising, single point]

## CCC(C)[C@H](NC(=O)N1CC(=O)Nc2ccccc21)C(=O)N1CCC[C@H]1C(=O)O (stereo not given in full)
  cell number change: 46.9%
[1]
  AC50: 32600 nM [rising, partial curve, poor fit]
[2]
  AC50: 4610 nM [rising, partial curve, poor fit]

## Cc1snc(SCc2cccc(Cl)c2)c1C#N
  cell number change: 9.09%
[2]
  AC50: 6510 nM [rising, partial curve, poor fit]

## O=C(Nc1ccccc1Oc1ccccc1)c1ccccc1F
  cell number change: -1.09%
[1]
  AC50: 731 nM [rising, single point]

## NS(=O)(=O)c1ccc(Nc2nc(-c3ccc(O)cc3O)cs2)cc1
  cell number change: 112%
[1]
  AC50: 2060 nM [rising, full curve, poor fit]

## CCCCn1c(N)c(N(C)C(=O)c2ccc(OCC3CCCO3)cc2)c(=O)[nH]c1=O (stereo not given)
  cell number change: -2.36%

## CCC(=O)Nc1nc(C)c(C(=O)Nc2cccc(Cl)c2)s1
  cell number change: 17.2%
[2]
  AC50: 16400 nM [falling, single point]

## COc1ccc(OCC(O)Cn2c(=N)n(Cc3ccccc3)c3ccccc32)cc1 (stereo not given)
[1]
  AC50: 5800 nM [falling, partial curve]

From PubChem BioAssay AID2685 (National Center for Advancing Translational Sciences (NCATS), 2010)
